# In article PMC9106008, “Design, Synthesis and Biological Evaluation of N-phenylindole Derivatives as Pks13 Inhibitors againstMycobacterium tuberculosis” (Molecules, 2022):
# Experiment: liver microsome stability assay
structure (smiles),measurement,setting,value
CCCNCC(O)COc1ccccc1C(=O)CCc1ccccc1 (stereo not drawn) [Propafenone],Remaining (T = 60 min),"human liver microsomes, 60 min incubation",0.0%
same,CLint(mic),"human liver microsomes, 0.693/half-life/mg of microsome protein per mL",244.8 µL/min/mg
same,CLint scaled at 0.1 µM,"human, liver microsomes, pH 7.4",220 mL/min/kg
